Laboratory results: PubChem BioAssay AID1224830 (NIAID, 2016)
Purpose: 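Host factors that control LPS-induced TNF expression in human macrophages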 (primary screen). Cell system: human THP-1 monocytic leukaemia cells, TNF dual-luciferase reporter clone, PMA-differentiated to macrophage-like cells. Reagents: siRNA pool against human genes, 50 nM. Duration: LPS for 4 h, given about 3 days after siRNA transfection. Conditions: bacterial LPS (TLR4 ligand), 10 ng/ml. Measured: 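Ratio of firefly to renilla light, scaled to the plate median and expressed as a robust z-score per replicate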. Scale: TNF reporter robust z-score: higher = stronger TNF reporter response to LPS. Hit rule: 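Each well counts as active if its z-score is over 2.8 or under -1.5; controls are left without a call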.
Here is an unselected part of about 18,000 reagents tested. In the full data, about 2,900 (16%) were called active. 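Calls are made per well; low scores hint the gene aids the LPS response, high scores that it dampens it.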 A number with no mark means an inactive call. Repeated entries: four replicate wells of each siRNA pool. No sequences are given here.

| gene knocked down | PubChem SID | TNF reporter robust z-score |
| --- | --- | --- |
| NCOA7 | SID315461984 | -1.13 |
| NCOA7 | SID315461984 | -1.29 |
| NCOA7 | SID315461984 | -1.31 |
| NCOA7 | SID315461984 | -0.94 |
| SLC39A9 | SID315457605 | -1.14 |
| SLC39A9 | SID315457605 | -0.53 |
| SLC39A9 | SID315457605 | -0.31 |
| SLC39A9 | SID315457605 | 0 |
| KRTAP1-5 | SID315460123 | -1.2 |
| KRTAP1-5 | SID315460123 | -0.99 |
| KRTAP1-5 | SID315460123 | -0.97 |
| KRTAP1-5 | SID315460123 | -0.94 |
| ISLR | SID315449541 | 0.31 |
| ISLR | SID315449541 | 1.05 |
| ISLR | SID315449541 | 1.01 |
| ISLR | SID315449541 | 0.69 |
| EPAS1 | SID315448519 | -1.49 |
| EPAS1 | SID315448519 | -1.41 |
| EPAS1 | SID315448519 | -1.1 |
| EPAS1 | SID315448519 | -0.4 |
| OC90 | SID315465205 | 0.28 |
| OC90 | SID315465205 | 1.79 |
| OC90 | SID315465205 | -0.72 |
| OC90 | SID315465205 | 1.15 |
| PRAMEF9 | SID315464148 | -0.24 |
| PRAMEF9 | SID315464148 | 0.85 |
| PRAMEF9 | SID315464148 | 0.3 |
| PRAMEF9 | SID315464148 | -0.36 |
| MZB1 | SID315456574 | -0.88 |
| MZB1 | SID315456574 | -1.26 |
| MZB1 | SID315456574 | -0.57 |
| MZB1 | SID315456574 | -1.07 |
| CKMT1B | SID315447944 | 0.51 |
| CKMT1B | SID315447944 | 0.68 |
| CKMT1B | SID315447944 | 0.61 |
| CKMT1B | SID315447944 | 0.79 |
| PI4KAP2 | SID315464356 | 1.25 |
| PI4KAP2 | SID315464356 | 1.31 |
| PI4KAP2 | SID315464356 | -0.18 |
| PI4KAP2 | SID315464356 | 0.6 |
| PHETA2 | SID315462451 | -0.67 |
| PHETA2 | SID315462451 | 0.15 |
| PHETA2 | SID315462451 | -0.35 |
| PHETA2 | SID315462451 | -0.47 |
| NOP58 | SID315456800 | 2.02 |
| NOP58 | SID315456800 | 1.89 |
| NOP58 | SID315456800 | 1.46 |
| NOP58 | SID315456800 | -0.57 |
| DHX40 | SID315459366 | -0.85 |
| DHX40 | SID315459366 | -0.65 |
| DHX40 | SID315459366 | -0.94 |
| DHX40 | SID315459366 | -0.68 |
| PARP6 | SID315458198 | 3.08 (active) |
| PARP6 | SID315458198 | -0.79 |
| PARP6 | SID315458198 | -0.26 |
| PARP6 | SID315458198 | 0.77 |
| CD86 | SID315447778 | -0.61 |
| CD86 | SID315447778 | -0.59 |
| CD86 | SID315447778 | -0.66 |
| CD86 | SID315447778 | -0.5 |
| RPS20 | SID315451239 | -0.4 |
| RPS20 | SID315451239 | -0.03 |
| RPS20 | SID315451239 | -0.14 |
| RPS20 | SID315451239 | 0.29 |
| SCAMP3 | SID315453792 | 1.58 |
| SCAMP3 | SID315453792 | -0.58 |
| SCAMP3 | SID315453792 | 1.05 |
| SCAMP3 | SID315453792 | 0.51 |
| PDCD6IP | SID315453753 | 0.58 |
| PDCD6IP | SID315453753 | 0.75 |
| PDCD6IP | SID315453753 | 0.34 |
| PDCD6IP | SID315453753 | 0.14 |
| GNA13 | SID315454288 | -1.04 |
| GNA13 | SID315454288 | -0.74 |
| GNA13 | SID315454288 | -0.89 |
| GNA13 | SID315454288 | -0.8 |
| MCCC1 | SID315458163 | 0.22 |
| MCCC1 | SID315458163 | 1.09 |
| MCCC1 | SID315458163 | 1.73 |
| MCCC1 | SID315458163 | 0.46 |
| PYGO2 | SID315460857 | -0.14 |
| PYGO2 | SID315460857 | 0.27 |
| PYGO2 | SID315460857 | 0.01 |
| PYGO2 | SID315460857 | 0.65 |
| KCTD14 | SID315459118 | 0.25 |
| KCTD14 | SID315459118 | -0.79 |
| KCTD14 | SID315459118 | 0.36 |
| KCTD14 | SID315459118 | -0.21 |
| DISP1 | SID315460620 | 0.38 |
| DISP1 | SID315460620 | 0.68 |
| DISP1 | SID315460620 | 0.3 |
| DISP1 | SID315460620 | 0.48 |
| SLC12A8 | SID315460410 | -0.95 |
| SLC12A8 | SID315460410 | -1.43 |
| SLC12A8 | SID315460410 | -1.13 |
| SLC12A8 | SID315460410 | -0.64 |
| OR4X2 | SID315461481 | 0.65 |
| OR4X2 | SID315461481 | 0.88 |
| OR4X2 | SID315461481 | -0.3 |
| OR4X2 | SID315461481 | 1.5 |
| MSL3 | SID315454475 | -2.05 (active) |
| MSL3 | SID315454475 | -1.73 (active) |
| MSL3 | SID315454475 | -1.47 |
| MSL3 | SID315454475 | -1.67 (active) |
| CCPG1 | SID315453143 | 0.72 |
| CCPG1 | SID315453143 | -1.03 |
| CCPG1 | SID315453143 | -1.07 |
| CCPG1 | SID315453143 | -0.59 |
| CCPG1 | SID315453143 | 1.32 |
| CCPG1 | SID315453143 | 1.17 |
| CCPG1 | SID315453143 | 2.45 |
| CCPG1 | SID315453143 | 2.87 (active) |
